Among the data in PMC8874669 are binding values, retold here.

Results are given in words; binding and its absence hold for the method and conditions named. Some binding calls cover weakened binding; strength is not graded here.

Assay [1] addresses full-length LIX1L, LexA bait (human) (UniProt Q8IVB5). Put plainly: two-hybrid; full-length LIX1L bait in pB27 screened against a random-primed human ventricle and embryo heart cDNA library in pP6; medium lacking Trp, Leu, His with 2 mM 3-aminotriazole.
Assay [2] concerns the target T1, cytoplasmic tail of DCHS1 (amino acids 2962–3191), LexA bait (human) (UniProt Q96JQ0).
T1 sequence: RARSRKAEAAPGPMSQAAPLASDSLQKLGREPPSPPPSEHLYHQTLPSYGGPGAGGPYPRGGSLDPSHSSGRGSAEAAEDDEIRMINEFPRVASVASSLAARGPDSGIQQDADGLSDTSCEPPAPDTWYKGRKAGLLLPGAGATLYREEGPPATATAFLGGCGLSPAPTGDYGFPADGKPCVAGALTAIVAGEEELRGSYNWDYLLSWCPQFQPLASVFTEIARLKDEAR
Put plainly: two-hybrid; LexA-DCHS1 (aa 2962-3191) bait screened against a random-primed human placenta cDNA library in pP6; mating of YHGX13 and L40ΔGal4; medium lacking Trp, Leu, His with 50 mM 3-aminotriazole.

B1: DCHS1, prey clones from the human ventricle and embryo heart library (domain or fragment, UniProt Q96JQ0 3137-3189)
chain: ADGKPCVAGALTAIVAGEEELRGSYNWDYLLSWCPQFQPLASVFTEIARLKDE
In the case of B1, the binding entry in assay [1] is reported as “binds”.
With TKWGTIEVENTTHCEFAYLRDLLIRTHMQNIKDITS (domain or fragment, UniProt Q9UHD8 518-553) [septin-9 (SEPT9), prey clones from the human ventricle and embryo heart library], the binding entry in assay [1] is reported as “binds”.

B2: Lix1-Like (LIX1L), prey clones from the human placenta library (domain or fragment, UniProt Q8IVB5 87-311)
chain: SFAKHTQGYGRVNVVEALQEFWQMKQSRGADLKNGALVVYEMVPSNSPPYVCYVTLPGGSCFGSFQFCPTKAEARRSAAKIALMNSVFNEHPSRRITDEFIEKSVSEALASFNGNREEADNPNTGIGAFRFMLESNKGKSMLEFQELMTVFQLLHWNGSLKAMRERQCSRQEVLAHYSHRALDDDIRHQMALDWVSREQSVPGALSRELASTERELDEARLAGKE
In the case of B2, the binding result in assay [2] is given as “binds”.
